Measurements taken from article PMC8572226.
No constants are given. Whether binding was seen depends on the method and setting. In cells and extracts the contact can be indirect. Some binding calls cover weakened binding; strength is not graded here.

Protein sequences, listed by entry. Tags and fused reporters are not part of them. Residues count along the entry.
UniProt P63158: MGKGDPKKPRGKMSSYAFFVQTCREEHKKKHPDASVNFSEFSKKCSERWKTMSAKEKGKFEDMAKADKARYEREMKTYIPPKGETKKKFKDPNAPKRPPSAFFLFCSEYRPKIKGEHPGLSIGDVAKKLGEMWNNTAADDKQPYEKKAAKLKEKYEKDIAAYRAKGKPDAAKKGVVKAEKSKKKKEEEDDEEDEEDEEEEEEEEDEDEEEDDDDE
UniProt Q62151, residues 23-402: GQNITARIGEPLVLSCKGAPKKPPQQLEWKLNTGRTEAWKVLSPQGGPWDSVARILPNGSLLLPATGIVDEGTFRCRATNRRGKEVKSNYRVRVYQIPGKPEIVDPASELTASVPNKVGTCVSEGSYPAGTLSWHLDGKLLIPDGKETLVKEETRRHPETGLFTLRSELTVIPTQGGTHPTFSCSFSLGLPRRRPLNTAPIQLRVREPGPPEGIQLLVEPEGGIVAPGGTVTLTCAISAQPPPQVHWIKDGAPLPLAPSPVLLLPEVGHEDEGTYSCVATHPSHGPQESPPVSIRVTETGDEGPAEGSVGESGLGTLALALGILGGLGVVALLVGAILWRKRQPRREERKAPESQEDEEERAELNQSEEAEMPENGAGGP

How the values were obtained:
[1] = target: High mobility group box protein 1 (mouse (endogenous in Raw264.7)) (UniProt P63158); assay: co-IP; Raw264.7 cells with LPS and the RAGE inhibitor FPS-ZM1; endogenous proteins
[2] = target: High mobility group box protein 1 (mouse (endogenous in Raw264.7)) (UniProt P63158); assay: co-IP; Raw264.7 cells stimulated with 100 ng/ml LPS for 24 h; IP with anti-HMGB1, immunoblot; endogenous proteins

binding [2]: binds
Substance: receptor for advanced glycation end-products (from UniProt Q62151 23-402)
binding [1]: no binding (condition: with FPS-ZM1 (RAGE inhibitor))
